This note sets out measurements from PMC4654474.

No constants are given. Whether binding was seen depends on the method and setting. Binding seen in cells or lysates may run through a third protein. Some results given as binding are weak or reduced against the parent protein; the word gives no strength.

The target in the assay is RabGEF1 (rat, endogenous in PC12 cells) (rat (endogenous in PC12)). The experiment in a line: co-IP; PC12 cell lysates (0.5% Triton-X in PSB), NGF for 0, 0.5 or 1.0 hour; immunoprecipitation with anti-RabGEF1 or anti-NR2B antibody, Protein A/G agarose, Western blot; rabbit IgG as negative control. (In western blotting, separated proteins are transferred to a membrane and probed.)

B1: SynGAP (rat, endogenous in PC12 cells) (protein, UniProt Q9QUH6 1-1308)
chain: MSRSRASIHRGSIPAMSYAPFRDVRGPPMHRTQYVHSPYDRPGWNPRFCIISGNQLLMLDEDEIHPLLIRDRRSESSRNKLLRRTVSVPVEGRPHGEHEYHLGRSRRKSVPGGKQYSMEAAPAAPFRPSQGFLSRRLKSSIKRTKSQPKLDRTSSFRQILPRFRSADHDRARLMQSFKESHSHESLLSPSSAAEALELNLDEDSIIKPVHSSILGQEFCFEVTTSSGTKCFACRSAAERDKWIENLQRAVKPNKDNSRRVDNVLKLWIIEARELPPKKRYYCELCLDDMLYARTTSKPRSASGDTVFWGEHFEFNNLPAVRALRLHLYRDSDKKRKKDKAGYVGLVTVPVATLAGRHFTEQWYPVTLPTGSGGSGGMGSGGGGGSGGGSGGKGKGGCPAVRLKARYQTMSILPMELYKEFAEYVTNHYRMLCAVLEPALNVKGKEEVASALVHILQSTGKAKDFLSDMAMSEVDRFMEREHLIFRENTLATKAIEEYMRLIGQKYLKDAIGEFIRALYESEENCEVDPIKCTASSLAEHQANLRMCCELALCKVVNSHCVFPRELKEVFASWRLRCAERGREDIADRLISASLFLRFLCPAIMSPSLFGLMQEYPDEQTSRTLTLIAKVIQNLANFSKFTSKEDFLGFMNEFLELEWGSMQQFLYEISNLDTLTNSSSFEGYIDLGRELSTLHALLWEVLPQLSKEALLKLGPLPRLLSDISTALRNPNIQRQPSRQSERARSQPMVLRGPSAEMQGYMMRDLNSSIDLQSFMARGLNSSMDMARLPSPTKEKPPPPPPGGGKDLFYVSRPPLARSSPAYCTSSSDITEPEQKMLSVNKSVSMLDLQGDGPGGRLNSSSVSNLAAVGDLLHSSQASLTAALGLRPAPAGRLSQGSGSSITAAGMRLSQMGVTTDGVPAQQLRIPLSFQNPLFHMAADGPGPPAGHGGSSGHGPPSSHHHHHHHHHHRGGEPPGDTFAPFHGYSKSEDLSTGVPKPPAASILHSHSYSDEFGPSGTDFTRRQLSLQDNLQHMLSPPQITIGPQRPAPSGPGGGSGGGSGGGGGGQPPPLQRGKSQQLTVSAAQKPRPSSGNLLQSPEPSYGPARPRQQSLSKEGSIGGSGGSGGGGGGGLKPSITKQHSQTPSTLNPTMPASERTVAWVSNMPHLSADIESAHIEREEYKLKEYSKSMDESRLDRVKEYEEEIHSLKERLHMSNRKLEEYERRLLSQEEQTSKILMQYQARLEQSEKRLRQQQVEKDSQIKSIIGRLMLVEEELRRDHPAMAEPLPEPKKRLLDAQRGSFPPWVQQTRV
For the molecule B1, the binding result is reported as “binds”.

B2: Rabaptin-5 (rat, endogenous in PC12 cells) (protein, UniProt O35550 1-862)
chain: MAQPGPAPQPDVSLQQRVAELEKINAEFLRAQQQLEQEFNQKRAKFKELYLAKEEDLKRQNAVLQAAQDDLGHLRTQLWEAQAEMENIKAIATVSENTKQEAIDEVKRQWREEVASLQAVMKETVRDYEHQFHLRLEQERAQWAQYRESADREIADLRRRLSEGQEEENLENEMKKAQEDAEKLRSVVMPMEKEIAALKDKLTEAEDKIKELEASKVKELNHYLEAEKSCRTDLEMYVAVLNTQKSVLQEDAEKLRKELHEVCHLLEQERQQHNQLKHTWQKANDQFLESQRLLMRDMQRMEIVLTSEQLRQVEELKKKDQEEDEQQRINKGKDNKKIDTEEEVKIPVVCALTQEESSTPLSNEEEHLDSTHGSVHSLDADLLLPSGDPFSKSDNDMFKEGLRRAQSTDSLGTSSSLQSKALGYNYKAKSAGNLDESDFGPLVGADSVSENFDTVSLGSLQMPSGFMLTKDQERAIKAMTPEQEETASLLSSVTQGMESAYVSPSGYRLVSETEWNLLQKEVHNAGNKLGRRCDMCSNYEKQLQGIQIQEAETRDQVKKLQLMLRQANDQLEKTMKEKQELEDFLRQSAEDSSHQISALVLRAQASEVLLEELQQSFSQAKRDVQEQMAVLMQSREQVSEELVRLQKDNDSLQGKHSLHVSLQLAEDFILPDTVQVLRELVLKYRENIVHVRTAADHMEEKLKAEILFLKEQIQAEQCLKENLEETLQLEIENCKEEIASISSLKAELERIKVEKGQLESTLREKSQQLESLQEIKVNLEEQLKKETAAKATVEQLMFEEKNKAQRLQTELDVSEQVQRDFVKLSQTLQVQLERIRQADSLERIRAILNDTKLTDINQLPET
As to B2, the binding entry was “binds”.
